Results as given in article PMC9693259, “Synthesis, Self-Assembly in Crystalline Phase and Anti-Tumor Activity of 2-(2-/4-Hydroxybenzylidene)thiazolo[3,2-a]pyrimidines” (Molecules, 2022).

What was measured:
Format in all cases: cell-based
Details in all cases: selectivity index = IC50 normal cells (Chang liver) / IC50 cancer cells
[1] = tested on: MCF-7 (human mammary duct adenocarcinoma cell line); test: MTT cytotoxicity test, MCF-7; design: key: ns—no selectivity
Method: (§1) Formazan crystals were added to 100 µL of DMSO. […] The experiments for all compounds were repeated three times.

[2] = tested on: HuTu 80 human duodenal adenocarcinoma; test: MTT cytotoxicity test, HuTu 80
Method: as §1

[3] = tested on: PC3 prostate adenocarcinoma cell line; test: MTT cytotoxicity test, PC3; design: key: ns—no selectivity
Method: as §1

[4] = tested on: M-HeLa clone 11 (epithelioid carcinoma of the cervix, subline HeLa, clone M-HeLa); test: MTT cytotoxicity test, M-HeLa; design: key: ns—no selectivity
Method: as §1

Structure (SMILES) | SI MCF-7 [1] | SI HuTu 80 [2] | SI PC3 [3] | SI M-HeLa [4]
CNC(=O)c1cc(Oc2ccc(NC(=O)Nc3ccc(Cl)c(C(F)(F)F)c3)cc2)ccn1 [Sorafenib, reference compound] | ns | 1.7 | ns | ns
CCOC(=O)C1=C(C)N=c2s/c(=C\c3ccccc3O)c(=O)n2C1c1ccccc1 (stereo not drawn) [Compound 7, ethyl (Z)-2-(2-hydroxybenzylidene)-7-methyl-3-oxo-5-phenyl-2,3-dihydro-5H-thiazolo[3,2-a]pyrimidine-6-carboxylate] | 1.7 | 7.5 | ns | 6.3
CCOC(=O)C1=C(C)N=c2s/c(=C\c3ccccc3O)c(=O)n2C1c1ccc(Br)cc1 (stereo not drawn) [Compound 12, Ethyl (Z)-5-(4-bromophenyl)-2-(2-hydroxybenzylidene)-7-methyl-3-oxo-2,3-dihydro-5H-thiazolo[3,2-a]pyrimidine-6-carboxylate] | 1.5 | 3.3 | 2.8 | 
CCOC(=O)C1=C(C)N=c2s/c(=C\c3ccccc3O)c(=O)n2C1c1cccc([N+](=O)[O-])c1 (stereo not drawn) [Compound 10, Ethyl (Z)-2-(2-hydroxybenzylidene)-7-methyl-5-(3-nitrophenyl)-3-oxo-2,3-dihydro-5H-thiazolo[3,2-a]pyrimidine-6-carboxylate] | 1.6 | 6.0 | 1.6 | 1.6
